Counter-ions that a name gives are not always drawn.

The conditions of data set [1]: pH 7.4; cited from earlier work.
In data set [2] the test system is BV2 (mouse microglia) immortalized cell line. Briefly: Microglial cell viability (cell count, nuclear measures), BV2. Type of data set: cell-based. As to conditions: 10-point dose-response up to 20 or 40 μM, 24 or 48 h. The protocol: Microglial viability and phagocytosis studies: The pHrodo-myelin phagocytosis/cell viability assay, modified based on a published method, was run with BV2 (mouse microglia) and HMC3 (human microglia) immortalized cell lines in the Chu lab at IUSM. The 384-well plate high content analysis assay with BV2 and HMC3 microglial cell lines is used to quantify phagocytosis and cell viability simultaneously. High content imaging is performed with the ArrayScan automatic imaging system and imaging analysis done with the system’s software. Cells are treated with compounds for total 48 hours including final 20 hours seeded with pHrodo-myelin (labeled phagocytosis ligand, purified from mouse brain), then cells are stained with Hoechst- […]
Three measurements are extracted from the assay: 1) phagocytosis signal by mean total phagocytosis spot intensity per cell, 2) total cell counts per well as the main measurement of cell viability, and 3) mean average nuclear intensity per cell as profiling of cell health since apoptotic cells showing nuclear intensity increase (early apoptosis) and decrease (later apoptosis), respectively. […]
dose-response follow-up in duplicate or triplicate. These compounds were initially dosed up to […]

As to `COc1cc2c(cc1OC)C(=O)C(CC1CCN(Cc3ccccc3)CC1)C2` (centres unmarked) [UNC10240506B, Donepezil Hydrochloride (E2020)], in data set [1], the Kinetic solubility is 174.6 µM. Moreover, the “Toxicity in dose-response follow-up, BV2” value in data set [2] is on record as “toxicity limited only to the 40 μM dose”.

The record behind these values is publication PMC9005681, “Use of AD Informer Set compounds to explore validity of novel targets in Alzheimer's disease pathology” (Alzheimer's & Dementia : Translational Research & Clinical …, 2022).
